Values joined by “and” are separate entries in the source; they are usually repeats but may differ in a detail not shown here. Identical values can stand only once. The campaign covered roughly 220,000 compounds. About 2,400 (1.1%) were called active. Inconclusive means that the source gave no clear call. Such entries were picked first, then a sample of the others. The call rests on the fitted dose curve; in most records, active means well fitted inhibition curve with a large enough effect; inconclusive means small, poorly fitted or top-dose-only effect, or effect the other way; inactive means no such curve, though single readings can be large or run the other way. Potencies beside an inconclusive call are fits to weak or partial responses and may not hold up.
Assay: qHTS Multiplex Assay to Identify Dual Action Probes in a Cell Model of Huntington: Aggregate Formation (GFP); further: nearly all actives have a fitted effect of over 60% in size
Settings: PC12 HttQ103-GFP aggregates, Acumen cytometry, 40 h; activity change, negative = inhibition: at 46.1 µM (top of the series) unless noted
Procedure, shortened: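 Using laser scanning cytometry, GFP-positive aggregates were counted after lysis of PC12 cells induced with 100 nM tebufenozide to express HTT exon 1 Q103–GFP. Compounds were tested in titration.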
On the % scale 0 is the no-effect control and ±100 the full control effect; potency means the concentration at half of the fitted maximal effect.

Compound | Potency | activity change, negative = inhibition
COC(=O)Cn1c(=NC(=O)c2cccc(OC)c2)sc2cc(OC)ccc21 | inconclusive: 5.62 µM [activator, single point] | 
O=C(NC(C(=O)N/N=C/c1ccccc1)c1n[nH]c(=O)c2ccccc12)c1ccccc1 (configuration not stated) | inconclusive: 25.1 µM [inhibitor, single point] | 
COc1ccc(C)cc1N=Nc1ccc(O)c2ncccc12 | inconclusive: 5.62 µM [inhibitor, single point] | 
O=C(O)c1ccc(N2C(=O)/C(=C/C=C/c3ccccc3)SC2=S)cc1 | inconclusive: 10 µM [activator, partial curve] | 
Cc1[nH]n(-c2cccc(Cl)c2)c(=O)c1/C=N/n1c(C)nc2ccccc2c1=O | inactive | 
c1ccc2[nH]c(CN3CCN(c4ncnc5c4oc4ccccc45)CC3)nc2c1 | inconclusive: 5.01 µM [inhibitor, full curve, poor fit] | 
O=C1CCc2cc(S(=O)(=O)N3CCC(C(=O)NC4CCCc5ccccc54)CC3)ccc2N1 (configuration not stated) | inconclusive: 2.51 µM [activator, partial curve] | 
COc1ccc(NC(=O)C(C)SCc2ccccc2)cc1 (configuration not stated) |  | inactive: 9.72% [at 9.22 µM]
Cc1nc2ccccc2c2oc(C(=O)N3CCc4ccccc4C3)cc12 | inconclusive: 12.6 µM [inhibitor, single point] | 
COc1ccc2nc(N/C(N)=N/C(=S)Nc3ccccc3)nc(C)c2c1 | inconclusive: 12.6 µM [inhibitor, single point] | 
CC(=O)Nc1ccc(NC(=O)/C=C/c2cccc(C(F)(F)F)c2)cc1 | inactive | 
CCCCNS(=O)(=O)c1ccc2nc(SCC(=O)N3CC(C)OC(C)C3)[nH]c2c1 (configuration not stated) | inconclusive: 0.562 µM [activator, partial curve, poor fit] | 
CCOC(=O)/C=C/C(=O)Nc1nccs1 | inconclusive: 35.5 µM [inhibitor, single point] | 
Cc1ccc(-n2ncc3c(N4CCN(c5ccc(F)cc5)CC4)ncnc32)c(C)c1 | inconclusive: 1.41 µM [inhibitor, partial curve] | 
Cc1ccc(OCC(=O)NNc2c3ccccc3nc3ccccc23)cc1 | inconclusive: 20 µM [inhibitor, single point] | 
CCOC(=O)c1c(NC(=O)Cc2cccs2)sc(C(=O)N2CCCCC2)c1C | inactive | 
C=CCNC(=O)c1cc(Cl)ccc1Cl | inactive | 
CC(C)CCC1CC(CSC(=N)N)OC1=O (configuration not stated) | inconclusive: 12.6 µM [activator, single point] | 
CCN(CC)c1ccc(NC(=O)c2[nH]c(C)c(C(C)=O)c2C)c(C)c1 | inconclusive: 3.98 µM [inhibitor, partial curve] | 
COc1cc(C2C(C(=O)OCCC#N)=C(C)NC3=C2S(=O)(=O)c2ccccc23)cc(OC)c1OC (configuration not stated) | inconclusive: 3.55 µM [activator, partial curve, poor fit] | 
COc1ccc(-n2c(SCC(=O)Nc3ccccc3)nnc2-c2ccc(NS(=O)(=O)c3ccc(C)cc3)cc2)cc1 | inconclusive: 0.316 µM [activator, full curve, poor fit] | 
Cc1nc(Nc2ccc3c(c2)OCCO3)c2nnn(Cc3ccccc3Cl)c2n1 | inconclusive: 15.8 µM [inhibitor, single point] | 
CCc1ccc(S(=O)(=O)Nc2c(C)nn(C)c2C)cc1 | inconclusive: 8.91 µM [inhibitor, partial curve] | 

Compound | Potency | activity change, negative = inhibition
C=C1C(C(=O)Nc2ccc(OC)cc2)C1C(=O)Nc1ccc(OC)cc1 (configuration not stated) |  | inactive: -11.6% [at 9.22 µM]
O=C(N/N=C\c1ccc(Cl)cc1)c1sccc1-n1cccc1 | inactive | 
Cc1ccc(/C=N\NC(=O)c2cc([N+](=O)[O-])cc([N+](=O)[O-])c2)o1 | inconclusive: 11.2 µM [inhibitor, single point] | 
CCCN(CCC)c1ccc(C(O)c2nnc(-c3ccccc3)o2)cc1 (configuration not stated) | inconclusive: 35.5 µM [inhibitor, single point] | 
Cc1sc(NC(=S)NC(=O)CCc2ccccc2)c(C(N)=O)c1C | inconclusive: 0.562 µM [inhibitor, full curve, poor fit] | 
COc1ccc(CCNc2nc(-c3sc(N)nc3C)cs2)cc1OC | inactive | 
CCOC(=O)C1(Cc2cccc(F)c2)CCN(CCCn2cccn2)CC1 | inconclusive: 3.98 µM [activator, partial curve] | 
CCCCCCSc1cc(C)nc2ncnn12 | inconclusive: 12.6 µM [inhibitor, partial curve, poor fit] | 
C=CC(=O)N=c1sc2ccccc2n1-c1ccccc1 | inconclusive: 35.5 µM [inhibitor, single point] | 
CC(=O)c1ccc(NC(=O)c2ccc(CNc3c(N4CCOCC4)c(=O)c3=O)cc2)cc1 |  | inactive: 2.71% [at 9.22 µM]
O=C(NCc1ccccc1)C12CN(Cc3ccccc3)CC1C(c1ccc([N+](=O)[O-])cc1)=NO2 (configuration not stated) | inactive | 
CCc1ccc(N2CCN(C(=O)c3ccc(OC)c(OC)c3)CC2)cc1 | inconclusive: 35.5 µM [inhibitor, partial curve, poor fit] | 
CC(=O)Nc1ccc(-c2ccc(NC(C)=O)cc2)cc1 | inconclusive: 2 µM [activator, partial curve] | 
COc1ccc(NC(=O)C2CCCN2C(=O)Oc2ccccc2)cc1 (configuration not stated) | inconclusive: 5.62 µM [activator, single point] | 
CCCCN1C(=O)CC(C(=O)OCC)=C1C |  | inactive: -13.5% [at 9.22 µM]
CCN1CCN(C(=S)NC(C)c2ccccc2)CC1 (configuration not stated) | inactive | 
NC(=S)N/N=C/c1ccc(-c2ccc(Cl)c(Cl)c2)o1 | inconclusive: 4.47 µM [activator, partial curve] | 
O=C(NCC1CCCO1)C(c1ccncc1)N(Cc1cccs1)C(=O)CN1C(=O)c2ccccc2S1(=O)=O (configuration not stated) |  | inactive: 7.91% [at 9.22 µM]
COc1ccc(/C=N/NC(=O)c2ccoc2C)cc1COc1c(C)cccc1C | inconclusive: 31.6 µM [inhibitor, single point] | 
CCc1nc(Sc2nc(C)cc(C)n2)c2oc3ccccc3c2n1 | inconclusive: 11.2 µM [activator, single point] | 
O=C(NC(c1ccccc1)c1ccccc1)c1ccc(Br)o1 | inactive | 
CC(=O)c1ccc(NC(=S)N2CCC(O)CC2)cc1 | inconclusive: 3.55 µM [inhibitor, single point] | 
O=C1c2ccccc2C(=O)c2c(NCCCN(CCO)CCO)cccc21 | inconclusive: 28.2 µM [inhibitor, single point] | 

Compound | Potency | activity change, negative = inhibition
CCCCCc1c(C)nc(Nc2ccc(F)cc2)[nH]c1=O | inconclusive: 35.5 µM [inhibitor, single point] | 
CC(=O)/C(C#N)=C1\NC(=O)C(Cc2ccc(C)c(C)c2)S1 (configuration not stated) | inconclusive: 35.5 µM [inhibitor, single point] | 
CC1(C)OC(=O)NC1=O | inactive | 
COCCn1c(=O)[nH]c2cc(C(=O)OC)ccc2c1=O | inconclusive: 0.562 µM [inhibitor, partial curve, poor fit] | 
CC(C)CCC(C(=O)O)C(C)CC(=O)NNC(=O)c1ccco1 (configuration not stated) |  | inactive: -7.04% [at 9.22 µM] and inactive: 8.31% [at 9.22 µM]
COc1ccc2oc(=O)c(C(=O)Nc3cccc(C)c3)cc2c1 |  | inactive: -1.14% [at 9.22 µM]
Cc1ccc(CN2CCN(/N=C/C=C/c3ccccc3[N+](=O)[O-])CC2)cc1 | inconclusive: 15.8 µM [inhibitor, single point] | 
COc1ccc(-c2cc(-n3c(C(F)(F)F)nc4ccccc43)n(CCC#N)n2)cc1 | active: 2.82 µM | 
CN(C)c1nc(N/N=C/c2ccccc2O)nc(Nc2ccc(F)cc2)n1 | inconclusive: 35.5 µM [inhibitor, single point] | 
Cc1ccccc1NS(=O)(=O)c1cc(C(=O)Nc2cccc([N+](=O)[O-])c2)ccc1C | inconclusive: 22.4 µM [inhibitor, single point] | 
COC(=O)CN1C(=O)C(O)(CC(=O)c2ccc(Br)cc2)c2ccccc21 (configuration not stated) | inactive | 
CCN(CC)c1ccc2c(c1)OC(N)=C(C#N)C2c1cccnc1 (configuration not stated) | inconclusive: 35.5 µM [activator, single point] | 
N#Cc1ccc(C(=O)Nc2nc(-c3cccs3)c(C(=O)C(F)(F)F)s2)cc1 | active: 2.82 µM | 
Cc1ncc(CO)c(/C=N/NC(=S)Nc2ccc(F)cc2)c1O | inconclusive: 22.4 µM [inhibitor, single point] | 
O=C(NCCCN1CCOCC1)c1cc(-c2ccccc2)on1 | inconclusive: 1.26 µM [activator, single point] | 
O=C(Nc1cccc(-c2csc(Nc3cccc(C(F)(F)F)c3)n2)c1)c1ccccc1 |  | inactive: -11.4% [at 9.22 µM]
CC1=C(C#N)C(C(F)(F)F)(C(F)(F)F)N=C(c2ccco2)N1 | inconclusive: 35.5 µM [inhibitor, single point] | 
COc1ccc(CC/C(=N\O)C2(O)CCCCC2)cc1 | inactive | 
COc1ccccc1N1CCN(C(c2ccccc2)c2nnnn2CCc2ccccc2)CC1 (configuration not stated) | inconclusive: 22.4 µM [inhibitor, single point] | 
CN(C1CCCCC1)S(=O)(=O)c1ccc(NC(=S)NC(=O)c2cccs2)cc1 | inconclusive: 35.5 µM [inhibitor, single point] | 
O=C(O)c1cc(Cl)c(Cl)cc1C(=O)N1CCOCC1 | inconclusive: 11.2 µM [inhibitor, partial curve] | 

— PubChem BioAssay AID1688 (National Center for Advancing Translational Sciences (NCATS), 2009)
